Results are given in words; binding and its absence hold for the method and conditions named. Binding seen in cells or lysates may run through a third protein. Here binding means that the protein was enriched with, or labelled near, the bait; the list need not be complete.

The values below come from article PMC11096501.

The assay has as its target T1, N-biotin wild type CARP-1 (614–638) peptide (human).
T1 sequence (peptide, biotin on the N-terminus): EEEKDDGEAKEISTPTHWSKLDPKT
As to the kind of experiment: cross-linking + affinity purification with mass spectrometry; K-CLASP: ADR-treated HeLa lysate (500 µg) with N-biotin CARP-1 peptide (1 mM) and ATP-ArN3 (5 mM), 31°C, 2 h, UV 365 nm; streptavidin resin; LC-MS/MS; hits enriched ≥1.2-fold over the S626,T627/AA peptide; only the target purified.

B1: Mitogen-activated protein kinase 12/p38γ (protein, UniProt P53778 1-367)
chain: MSSPPPARSGFYRQEVTKTAWEVRAVYRDLQPVGSGAYGAVCSAVDGRTGAKVAIKKLYRPFQSELFAKRAYRELRLLKHMRHENVIGLLDVFTPDETLDDFTDFYLVMPFMGTDLGKLMKHEKLGEDRIQFLVYQMLKGLRYIHAAGIIHRDLKPGNLAVNEDCELKILDFGLARQADSEMTGYVVTRWYRAPEVILNWMRYTQTVDIWSVGCIMAEMITGKTLFKGSDHLDQLKEIMKVTGTPPAEFVQRLQSDEAKNYMKGLPELEKKDFASILTNASPLAVNLLEKMLVLDAEQRVTAGEALAHPYFESLHDTEDEPQVQKYDDSFDDVDRTLDEWKRVTYKEVLSFKPPRQLGARVSKETPL
Turning to B1, the binding entry is listed as “binds”.
